Values from PubChem BioAssay AID1259308 (NCATS, 2017)

- Assay: 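Candidate targets for better recombinant protein yield in mammalian cells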 (primary screen)
- Cell system: human HEK293 embryonic kidney cells stably expressing firefly luciferase (HEK-CMV-Luc2-Hygro)
- Reagents: single siRNA against human genes, 0.8 pmol siRNA per well
- Time to read-out: 72 h
- Measured: 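Luciferase light (ONE-Glo) measured on one replicate plate set and viability (CellTiter-Glo) on the other, scaled to a negative control siRNA, with robust z-scores and luciferase per cell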
- Scale: total luciferase, z-score: higher = more reporter protein produced
- Rule for the call: 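An siRNA counts as active if its total luciferase robust z-score exceeds 3; genes with two or more such siRNAs out of three were retested with fresh siRNAs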
- Meaning of the calls: active = raised luciferase; inactive = no rise
The whole screen tested about 59,000 reagents; below is an unselected part. In the full data, about 1,510 (2.6%) are marked active. 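Calls use total luciferase alone and ignore viability, so some active siRNAs may act by altering cell number.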 The numbers tell different reagents against one gene apart. Further read-outs or replicates are left out here. Reagent sequences are not shown.

target,reagent,"total luciferase, z-score",Outcome
CLK2,1,0.338,inactive
CLK2,2,-0.589,inactive
CLK2,3,0.0796,inactive
FJX1,1,-0.789,inactive
FJX1,2,-1.01,inactive
FJX1,3,0.391,inactive
GAL3ST4,1,-0.0903,inactive
GAL3ST4,2,-0.255,inactive
GAL3ST4,3,-0.389,inactive
BCL6,1,-2.85,inactive
BCL6,2,-0.0161,inactive
BCL6,3,-1.38,inactive
PTRHD1,1,-0.295,inactive
PTRHD1,2,-0.824,inactive
PTRHD1,3,-0.564,inactive
JPH1,1,-0.388,inactive
JPH1,2,1.51,inactive
JPH1,3,-0.0673,inactive
MOB3A,1,0.0377,inactive
MOB3A,2,0.0956,inactive
MOB3A,3,-0.843,inactive
HABP4,1,3.07,active
HABP4,2,-0.57,inactive
HABP4,3,-0.432,inactive
REDIC1,1,0.143,inactive
REDIC1,2,-0.208,inactive
REDIC1,3,-0.744,inactive
GSTT2,1,0.795,inactive
GSTT2,2,0.263,inactive
GSTT2,3,0.364,inactive
PON1,1,0.888,inactive
PON1,2,-0.542,inactive
PON1,3,0.1,inactive
FERD3L,1,0.33,inactive
FERD3L,2,-0.179,inactive
FERD3L,3,2.94,inactive
ZNF676,1,-0.0731,inactive
ZNF676,2,-2.34,inactive
ZNF676,3,0.709,inactive
